Measurements: the supplement of paper PMC3334620
In all, about 33,000 sequences were measured (“E-score (-0.5 to 0.5)”: median about -0.016, highest 2% from about 0.3 on). Some of the results follow.

Target: T1, Yer184c (UniProt P39961)
T1 sequence: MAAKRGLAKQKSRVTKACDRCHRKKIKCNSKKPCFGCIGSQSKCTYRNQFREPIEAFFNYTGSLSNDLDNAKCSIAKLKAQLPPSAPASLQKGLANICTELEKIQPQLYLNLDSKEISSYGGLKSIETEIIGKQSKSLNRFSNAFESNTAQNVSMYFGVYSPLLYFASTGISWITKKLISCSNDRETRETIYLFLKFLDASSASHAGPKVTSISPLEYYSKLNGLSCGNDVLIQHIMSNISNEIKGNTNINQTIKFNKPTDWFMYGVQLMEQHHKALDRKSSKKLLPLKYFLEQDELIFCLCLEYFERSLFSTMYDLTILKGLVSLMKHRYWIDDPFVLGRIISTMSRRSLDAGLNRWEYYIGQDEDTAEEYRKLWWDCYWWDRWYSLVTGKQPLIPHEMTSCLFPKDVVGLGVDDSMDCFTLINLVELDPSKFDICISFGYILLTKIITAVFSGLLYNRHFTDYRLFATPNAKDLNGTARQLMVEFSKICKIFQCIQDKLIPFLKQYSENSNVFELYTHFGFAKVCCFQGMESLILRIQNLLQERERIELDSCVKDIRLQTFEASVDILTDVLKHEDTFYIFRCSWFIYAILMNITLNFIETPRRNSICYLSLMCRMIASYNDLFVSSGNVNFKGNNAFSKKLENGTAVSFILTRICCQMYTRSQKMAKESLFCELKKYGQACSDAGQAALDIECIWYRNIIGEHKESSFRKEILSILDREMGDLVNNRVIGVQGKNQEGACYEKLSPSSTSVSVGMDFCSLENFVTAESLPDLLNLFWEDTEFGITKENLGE
Experiment: PBM E-score (8-mer binding enrichment) (E-score (-0.5 to 0.5)); higher = stronger / more preferred TF binding
Conditions: protein concentration: 100 nM; construct: GST-full length
In short: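 Detection of bound protein used fluorescent anti-GST, with scans normalised by masliner. The proteins were GST-tagged yeast transcription factors applied at about 100-200 nM to universal all-10-mer Agilent arrays made double-stranded by primer extension. Each ungapped eight-base word, pooled with its reverse complement, was scored with an E-score from the Universal PBM Analysis Suite.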

Sequence | PBM E-score
AGGCCTGA | -0.0729
ATCGAATG | -0.224
CTATGTAA | -0.0731
CGATCCAA | -0.0183
AGCACTAT | -0.183
TAGGTGGA | -0.12
CCATATAG | -0.148
GGATCATA | -0.187
AAATATAC | 0.0721
CGACCAAA | 0.216
CGTATGGA | 0.0135
AACTAGTT | 0.0195
GTTCTCCA | 0.0609
ACTCGTAC | -0.11
GGCTAACA | 0.107
ATACCGAC | 0.0349
CCAACTGG | -0.0116
ATTAACTA | -0.113
ATATACCA | -0.0503
ATTAATGG | 0.201
GCTGAGTA | -0.105
TACCACTA | -0.109
AAGAAACA | 0.183
ACCAGTAT | -0.00962
GGGCACCC | -0.289

Sequence | PBM E-score
CAGGACAG | -0.0623
ATCAAATC | 0.124
AATTGAGA | 0.115
CCGATTAC | 0.0738
GAGGCCAA | -0.0942
AGGGCAGG | -0.216
CGGGAGGA | 0.188
GATGGCGA | 0.0183
AGAATACA | 0.0683
GTAGACCA | -0.306
AATATCGT | 0.213
TGCTAACA | 0.092
CGTTTCAA | 0.196
ATTGGATA | 0.0134
ACCTGGCA | -0.0663
ATCTTATG | 0.0105
ACTGGGTA | -0.114
AAATTTCA | -0.147
GAGACATA | 0.0248
CGATCACA | 0.249
CCCTAATA | -0.0423
GCTGTTGA | 0.0945
GCATTCAA | 0.147
ACGATGAG | 0.115
GTGTGCAA | -0.0158

Quoted at random: 3 entries already listed.
Sequence | PBM E-score
ATCTTATG | 0.0105
ATTAATGG | 0.201
CGGGAGGA | 0.188

Going on with the list.

Sequence | PBM E-score
CTACAGCA | -0.0036
CAATGACA | -0.0728
GAGACCAA | 0.0375
AATTAAGA | 0.139
GATCTTCA | 0.19
ACTAAAAA | 0.196
GCCTTTTA | -0.125
ACTCCCAA | -0.0252
CTCGAAAG | 0.0981
CGTTCTAG | -0.00547
CTAGACAG | -0.0809
ACTAGTAC | 0.0175
ATGGGACA | -0.226
GCACGGCC | 0.136
ACTATGAT | 0.0521
ACATTAGC | -0.119
CATTAGAA | 0.145
ACTTACTC | -0.088
CGCCTCGC | -0.32
CGCCCGTA | -0.141
AGCTTGTC | 0.111
ACCACGAG | -0.0103
ATTTATAG | -0.0174
AATGATCG | 0.0585
CCACCCCA | -0.217

Sequence | PBM E-score
CGGACGCA | 0.0336
ATATTACG | 0.187
CATAAGTA | -0.0848
GAAATAAA | 0.219
CGCCTGAG | -0.0391
ACACACCT | -0.00442
CGACCGCG | 0.236
CAAACTGA | 0.0606
AATGGTAA | 0.0886
AAAACGCC | 0.173
GAGGGCCA | -0.177
GCTATCTA | -0.0215
ACCTCTTC | 0.00324
CTGTTGCA | 0.0607
AGACTGGC | -0.223
GGCTTACC | -0.0572
AAAACACT | 0.0868
CTTCACTC | -0.00654
CGTTAAGC | 0.0647
CGGTATAA | 0.208
AACAGATT | 0.0578
CGGGTTTC | 0.235
AAGCCGTG | 0.137
AGGCCTAC | -0.151
CGGTTAAC | 0.0718

An excerpt of the results above, as a working copy:
Sequence | PBM E-score
CGCCTGAG | -0.0391
ACACACCT | -0.00442
CGACCGCG | 0.236
CAAACTGA | 0.0606

Next entries:

Sequence | PBM E-score
ATATCCTG | -0.0574
CATCGTTA | -0.0914
GACCTCAC | -0.0799
TCCCAGCA | 0.0666
CATTGTGG | -0.109
ATTCATTA | 0.198
GAACGTAA | 0.00769
CCCTAACA | 0.187
AAGCTGTC | -0.206
GAGTCTGC | -0.232
CAGCCTTC | -0.139
ACGTTGGA | -0.0829
AGTCCCGC | -0.137
GTACTGGA | -0.023
AACGAGAT | 0.0148
AGGCCCTC | -0.26
CCAAGTAC | -0.167
GATTCTCA | 0.119
AGAACGTC | -0.0716
ACCTGCGC | -0.0895
AGGGACGC | -0.193
AGGCATCG | -0.0561
GAAGCGAA | 0.0247
TCACACGA | 0.126
ATGATTAA | 0.285

Sequence | PBM E-score
ACAGACTG | -0.152
ACATTCGT | -0.0675
AGTATCGG | 0.25
GCCCTGAC | -0.191
TACACTGA | -0.0327
CACCTATA | -0.217
AGACGTCG | -0.182
GACGGTAA | 0.143
CTCCAATA | 0.195
CAATTAGG | 0.115
ACAAAGGA | 0.012
ATCGGCCG | 0.388
CGGAAACC | 0.188
ACAAATGC | 0.132
AGAAAACA | 0.199
AAAGGACA | 0.0375
TAGCCGCA | -0.0301
GTCATGGA | -0.177
GTAAAGAC | 0.0705
GTGAGAAC | -0.0436
CACTGAGC | -0.0794
AGGGATCA | -0.107
ATTAATTC | 0.261
AGCAACCC | -0.145
CCCTCAAA | 0.011

Sequence | PBM E-score
AACGGGGT | -0.221
CAGCTATG | -0.19
CATGGACA | -0.124
ACCCGACC | 0.0573
GATCGACC | 0.0906
CAGTCATA | -0.0857
TAGGGCAA | -0.0827
CCGCTTGA | 0.0514
AACAGGCG | -0.158
GCGTGGCA | -0.137
CAGTGTTA | 0.106
ATAATGTA | -0.00607
ACAGCGTA | -0.0923
GAAGGACA | 0.138
ACTCTACG | -0.101
GGCCTGAA | -0.0522
GGAAACCA | -0.0101
ACTTGTCG | -0.073
CAATCAAC | 0.0747
AGTTTCTC | 0.137
AAATGTAA | 0.223
CATGTCCA | 0.0395
